Drawing on publication PMC11459959, “Discovery of new acetamide derivatives of 5-indole-1,3,4-oxadiazol-2-thiol as inhibitors of HIV-1 Tat-mediated viral transcription” (Antimicrobial Agents and Chemotherapy, 2024), this text covers EC50 and IC50 for one compound.

The structures appear in SMILES notation.

Assay [1] concerns HIV-1NL4-3. The assay is described as follows: HIV-1 replication in A3.01 cells (p24 […]). The class given is cell-based. The following applies: Human immunodeficiency virus 1, 72 h, HIV-1NL4-3 MOI 0.1, 3 days, mean ± SD. The protocol:
(§1) The p24 level from the cell supernatant was subsequently determined using a p24 […] kit (PerkinElmer). In parallel, the cell viability was determined without viral infection because of the viral cytopathic effect. […] In parallel, cell viability was determined. The data (A and B) are presented as the mean ± SD (n = 3). (C) PBMCs (4 × 10^5) infected with HIV-AD8 at an MOI of 0.1 were treated with 1.5 µM of the compounds or ARVs for 3 days. The levels of p24 and cell viability were subsequently determined. (D) J1.1 cells were cultured with the compounds ([…]) under 50 ng/mL phorbol myristate acetate (PMA) treatment for 2 days. The level of p24 was subsequently determined. (E) J-Lat 6.3 cells were treated with the compounds (1.5 µM) under 1 µg/mL of PMA for 2 days. The GFP-positive cell population was analyzed using flow cytometry. […]
(§2) The inhibitory effects of the compounds on viral replication were determined with some minor modifications, as previously described ([12], [62]). […] At 72 h after infection, the inhibitory effect of the compounds on viral replication was determined by measuring the p24 amount, an HIV capsid protein, using an HIV-1 p24 […] kit (PerkinElmer, Waltham, MA, USA). Cell viability was determined as described above. The inhibitory effects on provirus reversing in J1.1 and J-Lat 6.3 cells were determined as previously described ([12], [41], [63]) with some minor modifications. […]

Assay [2] has as its system HIV-1NL4-3. Kind of assay: HIV-1 infectivity in TZM-bl cells (F-Luc). The assay is classed as cell-based. The conditions noted are these: Human immunodeficiency virus 1, TZM-bl, 48 h, TZM-bl cells infected with HIV-1NL4-3 at MOI 1, 48 h, mean ± SD.
Assay [3] concerns Tat-mediated LTR transcription. Kind of assay: Dual-reporter assay, F-Luc (Tat-mediated LTR transcription) in bl-DTR cells. The assay is classed as cell-based, HIV-1. The following applies: Human immunodeficiency virus 1, 24 h, read-out: IC50 of F-Luc (Tat). The protocol:
Fig 1 (A) (Top panel) Schematic representation of the primary compound screening using a dual-reporter system. […] (B). […] (Top graphs) bl-DTR cells (1 × 10^4) were treated with twofold serial dilutions of each compound before doxycycline (Dox) addition (final concentration, 50 ng/mL). After 24 h of treatment, the activities of firefly luciferase (F-Luc, red line) and Renilla luciferase (R-Luc, blue line) were determined using the Dual-Glo Luciferase assay system. (Bottom graphs) TZM-bl cells were treated with each indicated compound and subsequently infected with the HIV-1NL4-3 strain at a multiplicity of infection (MOI) of 1. At 48 h after infection, the viral infectivity (purple line) and cell viability (green line) were determined using the Bright-Glo luciferase assay kit and the PrestoBlue Cell Viability Reagent, respectively. […] (C). […]
The Tzm-bl-derived dual Tat reporter; TZM-bl/Tat/Rluc (bl-DTR) cells were established from TZM-bl cells using two Dox-inducible lentiviral expression cassettes cloned with Flag-tagged Tat86 and the R-Luc gene, as described in our previous study ([11]). […] The infected blue-colored cells were counted under a microscope (100× magnification). The infectious virus titer was determined as a mean value of blue-colored cells count × dilution factor and used for determining the multiplicity of infection (MOI) in each infection experiment.
A general note: In a reporter assay the amount or activity of a reporter protein is the signal.

Assay [4] deals with HIV-1NL4-3. The assay is described as follows: HIV-1 replication in PBMCs (p24 […]). The assay is classed as cell-based. The following applies: Human immunodeficiency virus 1, PBMC, 72 h, HIV-1NL4-3 MOI 0.1, 3 days, mean ± SD. The protocol: as §1, §2

As usually defined, the EC50 is the concentration that produces a half-maximal response. Broadly, the IC50 is the concentration that inhibits the measured activity by half. For the compound `CC[C@H](CO)Nc1nc(NCc2ccccc2)c2ncn(C(C)C)c2n1` [seliciclib, reference compound], the EC50 stood at 3.59 ± 0.69 µM in the assay on HIV-1NL4-3 [1], 3.24 ± 0.07 µM in the assay with HIV-1NL4-3 [2] and 3.93 ± 0.3 µM with HIV-1NL4-3 [4]. Further, the half-inhibitory concentration (IC50) in assay [3] amounted to 3.6 ± 0.1 µM.
